# Values of other authors as cited in patent US10611772B2, “Crystalline form of Ribociclib succinate” (Apotex Inc., priority 2018, dated 2020).
# At least one read-out could not be matched to a standard name with certainty.
# Conditions: CHMP Assessment Report for KISQALI; anhydrous form; cited from earlier work
compound,measurement,value
"CN(C)C(=O)c1cc2cnc(Nc3ccc(N4CCNCC4)cn3)nc2n1C1CCCC1 [Ribociclib succinate, 7-cyclopentyl-N,N-dimethyl-2-{[5-(piperazin-1-yl)pyridin-2-yl]amino}-7H-pyrrolo[2,3-d]pyrimidine-6-carboxamide]",Permeability (BCS assessment),moderate permeability
